Experimental data: paper PMC3458821
Changes are numbered by the printed parent chain. Results are given in words; binding and its absence hold for the method and conditions named. Some results given as binding are weak or reduced against the parent protein; the word gives no strength.

B1: Ybr138C with the putative D-box 462RLQL mutated (protein, UniProt P38277 1-524)
chain: MEKDQIQPRVLESVDTNSLSLLSSNTSSNMNSNTNNKLSIIASDISTGSVLSRPLTPPVVQDIENNSMLQWQFEKKEFIFDSNSTPSKQAKPLQRNSPYQGNSQSENQNQQLLNVRKRRSQLIGAKPKIPSKLYQSVSKLDLIDDKSFTSLPIAPPCNIETNEDDSGNNEYNNNKKRPRLNPVNELRVHNNKRNRYVSYGPSLDTKNYELTENTSQDIPPLVLVEDYIPYTQSKSTKKMVSISDLKSKLSKRRDNHIPLRVKNSYSEINKETNRNSFEPNSLTLIPHILRNTEENRDESNNPLDFIKEEIEISDISIPNSIENMVVNLVNIPSSNKSYDDLYLSELNVHSQLRKCVICEKALYEISSRLLNSGYYKEIVCEQCTVRYEEAAKIFENCEFESSMDESNLSSGTFSDLENSAEPFHLSTDVPKKINRHIEDNKIDLKKEISKKKDSFSKELIEALQAQLLENDKSIKHHFNKDAMGSKSMNWFLEARRKLKWKWRINGLLPHFLRNQNSDRLNFQP
B2: Ybr138C with the putative D-box 495RRKL mutated (protein, UniProt P38277 1-524)
chain: B1 chain with A462R, A465L, R495A, L498A
B3: Ybr138C-3xmdb (two-hybrid prey) (protein, UniProt P38277 1-524)
chain: B1 chain with R177A, L180A, R495A, L498A
B4: Fir1-N200 (domain or fragment, UniProt P40020 1-200)
chain: MSLPVTPVKSKVCSTLSIQHEMDHDQCRDVLCPRENLLAINRTNNIESVAIPRQRSSKNKKPHEHTQSQVRFSIPDPNEISQDSPLKIVFPKSGNETERRMSTSSLLMNSHGHLVDMHSKILVDVPKEVWKFHHNRRKKCESRHRKTRSDVRSNTSSSGKEPNHSRSKSLQSIIVDTMNTYRATEVETSINENTSNISQV
B5: Tos4 (two-hybrid prey, entire open reading frame) (protein, UniProt Q06266 1-489)
chain: MSSQFPSSPYRTVDPYSPPNYKQQPNCPSSNYEKAGKTASESIGNFGKGDYPTPFPSSSIGRVSSPVRSNKVDAIPSSPAFPGQLAETSPKFSSKLSSPSRHTRVINAELDPSKISTITVGRNSSQCDVALCKNKFISRVHASITYLPQTNEVKIHCFSMNGLIVTYRKQFDCYQLKDTMNNNNRAYRLVPRFSNEKCVKEIQDEGGFINFTLEEGDTVYMTYYKGIMLDFRQVLLRISLKEKNSSSEPLRFEKKAEFESESETKHMGSIRKHPLIFTDTSMDRPKKILKDSNKISIGSDSGVAERMLNHFLNSKSSPLSSVSSVDHEEQTLRQDSLSSDKNPMTMKKPKLNKRVLPSKPKKSVKENLDELSRRNIDVMHLQHILTNHLAFANVQQTPLFQLQQVNSQISELSRDELRSILSDAKCVGVIYRHGKDAAGKPLDEEYFYDLENDDDYERRNLVSSLKGGRTGLRSCRRTHKQYFWKKPAK
B6: Pdr3 411-976 (two-hybrid library clone) (domain or fragment, UniProt P33200 411-976)
chain: LCYAYYNVTLYHMLDINTLDYLEILVSLLEIQNEIDERFGFEKMLEVAVTCSTKMGLSRWEYYVGIDENTAERRRKIWWKIYSLEKRFLTDLGDLSLINEHQMNCLLPKDFRDMGFINHKEFLTKIGTSSLSPSSPKLKNLSLSRLIEYGELAIAQIVGDFFSETLYNEKFTSLEVSVKPTIIRQKLLEKVFEDIESFRLKLAKIKLHTSRVFQVAHCKYPEYPKNDLIEAAKFVSYHKNTWFSILGAVNNLIARLSEDPEVITEQSMKYANEMFQEWREINQFLIQVDTDFIVWACLDFYELIFFVMASKFYVEDPHITLEDVINTLKVFKRITNIISFFNNNLDEKDYDCQTFREFSRSSSLVAISIRIIFLKYCYAEQIDRAEFIERLKEVEPGLSDLLREFFDTRSFIYRYMLKSVEKSGFHLIIRKMLESDYKFLYRDKLATGNIPDQGNSSQISQLYDSTAPSYNNASASAANSPLKLSSLLNSGEESYTQDASENVPCNLRHQDRSLQQTKRQHSAPSQISANENNIYNLGTLEEFVSSGDLTDLYHTLWNDNTSYPFL
B7: Tos4-C222 (domain or fragment, UniProt Q06266 268-489)
chain: GSIRKHPLIFTDTSMDRPKKILKDSNKISIGSDSGVAERMLNHFLNSKSSPLSSVSSVDHEEQTLRQDSLSSDKNPMTMKKPKLNKRVLPSKPKKSVKENLDELSRRNIDVMHLQHILTNHLAFANVQQTPLFQLQQVNSQISELSRDELRSILSDAKCVGVIYRHGKDAAGKPLDEEYFYDLENDDDYERRNLVSSLKGGRTGLRSCRRTHKQYFWKKPAK
B8: Tos4-C222-mut.5 (domain or fragment, UniProt Q06266 268-489)
chain: GSIRKHPLIFTDTSMDRPKKILKDSNKISIGSDSGVAERMLNHFLNSKSSPLSSVSSVDHEEQTLRQDSLSSDKNPMTMKKPKLNKRVLPSKPKKSVAAALDELSRRNIDVMHLQHILTNHLAFANVQQTPLFQLQQVNSQISELSADEAASIASDAKCVGVIYRHGKDAAGKPLDEEYFYDLENDDDYEARNAVSSLKGGATGARSCRRTHKQYFWKKPAK
B9: Acm1 (protein, UniProt Q08981 1-209)
chain: MISPSKKRTILSSKNINQKPRAVVKGNELRSPSKRRSQIDTDYALRRSPIKTIQISKAAQFMLYEETAEERNIAVHRHNEIYNNNNSVSNENNPSQVKENLSPAKICPYERAFLREGGRIALKDLSVDEFKGYIQDPLTDETIPLTLPLGDKKISLPSFITPPRNSKISIFFTSKHQGQNPETKISRSTDDVSEKKVVRKLSFHVYEDE
B10: Ybr138C (two-hybrid prey) (protein, UniProt P38277 1-524)
chain: B1 chain with A462R, A465L
B11: Fir1 (two-hybrid prey) (protein, UniProt P40020 1-876)
chain: MSLPVTPVKSKVCSTLSIQHEMDHDQCRDVLCPRENLLAINRTNNIESVAIPRQRSSKNKKPHEHTQSQVRFSIPDPNEISQDSPLKIVFPKSGNETERRMSTSSLLMNSHGHLVDMHSKILVDVPKEVWKFHHNRRKKCESRHRKTRSDVRSNTSSSGKEPNHSRSKSLQSIIVDTMNTYRATEVETSINENTSNISQVSPLNLSFDRPPPLTPEKNLYLTPESPLNRYHLPVPLEISLPPYLSPQNKDKKRSSLVYDGDGYSQFQEGNTSSSTESSLEQPSSSYSDEDDSIPYAHHDVSFELNNADADKLLGIDENANVNLKIQRRNLKNPQHIKSKTDRECEEKNTEKNVSLKILSTPNKLIDIPDLEHMKSPPSTGLNGTLKFFQQFEPSEEPTSPTRQVNPESLDKLDMSFKFPSSTTNNNVDKVHENRNSGDTNNEDFLKVDTSPVNQSFESRRQMLIDLQKSPTNNNPRIHKHRRSRSVHNIDDISLNFEATSTPPAPTSAPSIPVEHSNPCTSIEIPKRSPLRFTSSPKTSDIPPEAQSPKNGSFLQEISVPSIQIIPDESISHTREPSPSLIECPEDENEAFSTEVADHSIAIISETKSVPSIEPFKPLSSFNSFGQEIQNKEPTPLNQTPTDLIGKQRNCVNPHSIPFSVLSSNSQSSQSGSSKSSYNSEFSSNTAITDTTSQPSVTINRSTLEHNFIEEKRSIKNLGHGPPSQKNNYSFPRNKNTPSNRHDLDFNTIYEKRDGKMVEVILLDEDEDVGLKNNDISRTRVCHAQKAKNEQQKKRLSHCNEILGMCDKTADDAKRIIYQLVNEKHKFSEKGQQTKPKKSRVLPPLPFPLYDEKGNSLIPNKYQSSIHNDIPSHRKLK
B12: Ybr138C-ΔN200 (domain or fragment, UniProt P38277 201-524)
chain: PSLDTKNYELTENTSQDIPPLVLVEDYIPYTQSKSTKKMVSISDLKSKLSKRRDNHIPLRVKNSYSEINKETNRNSFEPNSLTLIPHILRNTEENRDESNNPLDFIKEEIEISDISIPNSIENMVVNLVNIPSSNKSYDDLYLSELNVHSQLRKCVICEKALYEISSRLLNSGYYKEIVCEQCTVRYEEAAKIFENCEFESSMDESNLSSGTFSDLENSAEPFHLSTDVPKKINRHIEDNKIDLKKEISKKKDSFSKELIERLQLQLLENDKSIKHHFNKDAMGSKSMNWFLEARRKLKWKWRINGLLPHFLRNQNSDRLNFQP
B13: Ybr138C-N270 (domain or fragment, UniProt P38277 1-270)
chain: MEKDQIQPRVLESVDTNSLSLLSSNTSSNMNSNTNNKLSIIASDISTGSVLSRPLTPPVVQDIENNSMLQWQFEKKEFIFDSNSTPSKQAKPLQRNSPYQGNSQSENQNQQLLNVRKRRSQLIGAKPKIPSKLYQSVSKLDLIDDKSFTSLPIAPPCNIETNEDDSGNNEYNNNKKRPRLNPVNELRVHNNKRNRYVSYGPSLDTKNYELTENTSQDIPPLVLVEDYIPYTQSKSTKKMVSISDLKSKLSKRRDNHIPLRVKNSYSEINK
B14: Tos4-N267 (domain or fragment, UniProt Q06266 1-267)
chain: MSSQFPSSPYRTVDPYSPPNYKQQPNCPSSNYEKAGKTASESIGNFGKGDYPTPFPSSSIGRVSSPVRSNKVDAIPSSPAFPGQLAETSPKFSSKLSSPSRHTRVINAELDPSKISTITVGRNSSQCDVALCKNKFISRVHASITYLPQTNEVKIHCFSMNGLIVTYRKQFDCYQLKDTMNNNNRAYRLVPRFSNEKCVKEIQDEGGFINFTLEEGDTVYMTYYKGIMLDFRQVLLRISLKEKNSSSEPLRFEKKAEFESESETKHM
B15: Tos4-ΔC125 (domain or fragment, UniProt Q06266 1-364)
chain: MSSQFPSSPYRTVDPYSPPNYKQQPNCPSSNYEKAGKTASESIGNFGKGDYPTPFPSSSIGRVSSPVRSNKVDAIPSSPAFPGQLAETSPKFSSKLSSPSRHTRVINAELDPSKISTITVGRNSSQCDVALCKNKFISRVHASITYLPQTNEVKIHCFSMNGLIVTYRKQFDCYQLKDTMNNNNRAYRLVPRFSNEKCVKEIQDEGGFINFTLEEGDTVYMTYYKGIMLDFRQVLLRISLKEKNSSSEPLRFEKKAEFESESETKHMGSIRKHPLIFTDTSMDRPKKILKDSNKISIGSDSGVAERMLNHFLNSKSSPLSSVSSVDHEEQTLRQDSLSSDKNPMTMKKPKLNKRVLPSKPKKSV

Key:
[1] = biological target: T1, Cdh1-ΔN200 (S. cerevisiae) (UniProt P53197); assay: two-hybrid; data not shown; D-box mutants of Ybr138C with Cdh1
T1 sequence: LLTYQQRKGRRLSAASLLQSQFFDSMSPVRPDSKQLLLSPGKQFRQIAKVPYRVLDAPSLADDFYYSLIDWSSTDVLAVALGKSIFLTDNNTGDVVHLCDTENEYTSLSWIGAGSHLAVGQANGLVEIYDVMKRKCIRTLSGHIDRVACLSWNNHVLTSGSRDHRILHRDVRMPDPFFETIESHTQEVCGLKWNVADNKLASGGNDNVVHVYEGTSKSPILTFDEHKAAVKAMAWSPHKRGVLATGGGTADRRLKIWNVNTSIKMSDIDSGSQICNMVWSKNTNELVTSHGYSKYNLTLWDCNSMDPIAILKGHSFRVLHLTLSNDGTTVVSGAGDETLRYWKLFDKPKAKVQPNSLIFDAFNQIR

[2] = biological target: T1, Cdh1-ΔN200 (S. cerevisiae); assay: two-hybrid; pJ69-4a strains with bait plasmids mated with pJ69-4α strains with activation domain plasmids; diploids struck onto plates lacking leucine, tryptophan, histidine and adenine; growth indicates interaction

Binder	binding [1]	binding [2]
B1	binds	–
B2	binds	–
B3	binds	–
B4	–	binds
B5	–	binds
B6	–	binds
B7	–	binds
B8	–	binds weakly
B9	–	binds
B10	–	binds
B11	–	binds
B12	–	binds
B13	–	binds
B14	–	no binding
B15	–	no binding
